{
  "source": "patent US20150150156A1",
  "about": "“METHODS AND COMPOSITIONS FOR REDUCING GENE EXPRESSION IN PLANTS” (The Regents of the University of California, published 2015)",
  "binders": {"B1": {"name": "LDL1-3× FLAG (enzyme, Arabidopsis, UniProt Q8VXV7 1-844, looked up, not shown: small tags and cut ends)", "chain": "MSTETKETRPETKPEDLGTHTTVDVPGEEPLGELIADDVNEVVSDASATETDFSLSPSQSEQNIEEDGQNSLDDQSPLTELQPLPLPPPLPVEARISESLGEEESSDLVTEQQSQNPNAAEPGPRARKRRRRKRFFTEINANPAFSRNRRTSVGKEVDSEALIAMSVGFPVYSLTEEEIEANVVSIIGGKDQANYIVVRNHIIALWRSNVSNWLTRDHALESIRAEHKTLVDTAYNFLLEHGYINFGLAPVIKEAKLRSFDGVEPPNVVVVGAGLAGLVAARQLLSMGFRVLVLEGRDRPGGRVKTRKMKGGDGVEAMADVGGSVLTGINGNPLGVLARQLGLPLHKVRDICPLYLPNGELADASVDSKIEASFNKLLDRVCKLRQSMIEENKSVDVPLGEALETFRLVYGVAEDQQERMLLDWHLANLEYANATLLGNLSMAYWDQDDPYEMGGDHCFIPGGNEIFVHALAENLPIFYGSTVESIRYGSNGVLVYTGNKEFHCDMALCTVPLGVLKKGSIEFYPELPHKKKEAIQRLGFGLLNKVAMLFPCNFWGEEIDTFGRLTEDPSTRGEFFLFYSYSSVSGGPLLVALVAGDAAERFETLSPTDSVKRVLQILRGIYHPKGIVVPDPVQALCSRWGQDKFSYGSYSYVAVGSSGDDYDILAESVGDGRVFFAGEATNRQYPATMHGAFLSGMREAANILRVARRRASSSALNPNQICIDKEEEVDEEEDRCLDQLFETPDLTFGNFSVLFTPNSDEPESMSLLRVRIQMEKPESGLWLYGLVTRKQAIELGEMDGDELRNEYLREKLGLVPVERKSLSQEGESMISSLKAARLNRQIFD"}},
  "key": {"[1]": {"target": "T1, Arabidopsis thaliana SUVR5 protein (Arabidopsis thaliana) (UniProt O64827)", "T1 sequence": "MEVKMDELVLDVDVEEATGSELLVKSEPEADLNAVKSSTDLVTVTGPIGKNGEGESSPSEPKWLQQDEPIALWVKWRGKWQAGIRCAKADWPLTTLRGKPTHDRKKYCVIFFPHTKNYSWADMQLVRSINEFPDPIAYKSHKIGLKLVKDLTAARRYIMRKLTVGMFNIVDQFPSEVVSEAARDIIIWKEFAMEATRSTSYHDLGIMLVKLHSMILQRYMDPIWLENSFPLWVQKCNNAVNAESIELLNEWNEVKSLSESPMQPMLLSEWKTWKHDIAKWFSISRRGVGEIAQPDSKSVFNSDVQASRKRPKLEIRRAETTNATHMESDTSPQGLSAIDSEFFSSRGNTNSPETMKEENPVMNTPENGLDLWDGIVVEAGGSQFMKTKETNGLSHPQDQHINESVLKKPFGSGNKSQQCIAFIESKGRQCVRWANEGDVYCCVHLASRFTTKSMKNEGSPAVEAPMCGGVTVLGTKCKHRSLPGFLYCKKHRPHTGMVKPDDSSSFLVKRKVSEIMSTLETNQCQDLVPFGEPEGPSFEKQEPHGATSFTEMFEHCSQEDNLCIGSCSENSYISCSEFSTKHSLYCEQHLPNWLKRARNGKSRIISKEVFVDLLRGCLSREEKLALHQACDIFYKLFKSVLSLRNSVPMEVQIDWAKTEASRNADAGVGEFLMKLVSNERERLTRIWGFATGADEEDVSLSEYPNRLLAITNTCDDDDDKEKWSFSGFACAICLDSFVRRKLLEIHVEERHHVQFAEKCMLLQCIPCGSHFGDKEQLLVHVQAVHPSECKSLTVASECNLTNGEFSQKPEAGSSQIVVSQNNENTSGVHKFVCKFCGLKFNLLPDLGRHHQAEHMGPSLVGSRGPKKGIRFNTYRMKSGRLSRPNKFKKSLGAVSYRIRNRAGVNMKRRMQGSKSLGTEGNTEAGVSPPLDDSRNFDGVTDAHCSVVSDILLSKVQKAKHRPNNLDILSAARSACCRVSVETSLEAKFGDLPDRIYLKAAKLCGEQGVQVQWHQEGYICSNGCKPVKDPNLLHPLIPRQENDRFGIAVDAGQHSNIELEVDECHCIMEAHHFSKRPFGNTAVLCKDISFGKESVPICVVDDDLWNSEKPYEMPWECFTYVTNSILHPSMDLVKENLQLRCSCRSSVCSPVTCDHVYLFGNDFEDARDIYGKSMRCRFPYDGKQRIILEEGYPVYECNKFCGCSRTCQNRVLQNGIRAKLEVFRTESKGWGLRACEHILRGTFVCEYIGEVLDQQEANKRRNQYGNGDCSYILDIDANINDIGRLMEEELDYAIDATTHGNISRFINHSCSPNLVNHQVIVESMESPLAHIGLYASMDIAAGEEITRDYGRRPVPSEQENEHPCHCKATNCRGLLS", "experiment": "mass spectrometry analysis of LDL1 affinity purifications (FIG. 15B)"}, "[2]": {"target": "T1, Arabidopsis thaliana SUVR5 protein (Arabidopsis thaliana)", "experiment": "FLAG affinity purification of LDL1-3xFLAG from plant inflorescence tissue, mass spectrometry of co-purified proteins"}},
  "note": "These are yes or no findings as the source states them, for the method shown. In cells and extracts the contact can be indirect. A yes stands for co-enrichment or nearness to the bait. Other partners may have been found. Sequences can lack the tags named with a protein.",
  "data": [
    {"binder": "B1", "values": [
      {"measurement": "binding", "setting": "[1]", "result": "binds"},
      {"measurement": "binding", "setting": "[2]", "result": "binds"}
    ]}
  ]
}
